Results as given in paper PMC4019850.
These are yes or no findings as the source states them, for the method shown. Binding seen in cells or lysates may run through a third protein. A yes stands for co-enrichment or nearness to the bait. Other partners may have been found. For some of these results: Tags and fused reporters may be left off the sequences shown. Each block holds one molecule with its values, some of them ahead of it.

The chains behind the UniProt entries cited, without tags or fusion partners. Residues count along the entry.
UniProt P26045: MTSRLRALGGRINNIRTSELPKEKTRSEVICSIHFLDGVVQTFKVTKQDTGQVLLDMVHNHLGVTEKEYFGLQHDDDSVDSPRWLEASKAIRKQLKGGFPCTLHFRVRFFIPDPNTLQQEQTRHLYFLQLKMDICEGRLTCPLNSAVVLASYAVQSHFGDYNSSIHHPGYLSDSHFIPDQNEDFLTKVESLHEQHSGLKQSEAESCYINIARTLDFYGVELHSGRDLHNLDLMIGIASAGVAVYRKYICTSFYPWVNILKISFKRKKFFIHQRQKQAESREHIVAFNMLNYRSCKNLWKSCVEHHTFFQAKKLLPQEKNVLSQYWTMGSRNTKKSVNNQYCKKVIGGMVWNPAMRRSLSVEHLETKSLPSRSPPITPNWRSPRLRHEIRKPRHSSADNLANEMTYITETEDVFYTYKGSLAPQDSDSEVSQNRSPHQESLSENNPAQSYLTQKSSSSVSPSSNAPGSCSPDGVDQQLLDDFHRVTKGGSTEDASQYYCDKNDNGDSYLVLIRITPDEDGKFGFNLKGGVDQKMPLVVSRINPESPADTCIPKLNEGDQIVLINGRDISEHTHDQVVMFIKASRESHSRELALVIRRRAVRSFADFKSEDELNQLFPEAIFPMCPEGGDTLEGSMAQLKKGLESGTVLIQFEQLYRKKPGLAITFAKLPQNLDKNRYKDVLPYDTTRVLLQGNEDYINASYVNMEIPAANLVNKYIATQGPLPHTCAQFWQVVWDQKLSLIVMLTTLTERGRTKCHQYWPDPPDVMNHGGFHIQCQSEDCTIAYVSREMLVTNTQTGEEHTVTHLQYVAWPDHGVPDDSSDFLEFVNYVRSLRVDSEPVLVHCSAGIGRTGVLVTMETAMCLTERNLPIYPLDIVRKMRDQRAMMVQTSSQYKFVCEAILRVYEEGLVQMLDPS
UniProt O00411, residues 42-1230: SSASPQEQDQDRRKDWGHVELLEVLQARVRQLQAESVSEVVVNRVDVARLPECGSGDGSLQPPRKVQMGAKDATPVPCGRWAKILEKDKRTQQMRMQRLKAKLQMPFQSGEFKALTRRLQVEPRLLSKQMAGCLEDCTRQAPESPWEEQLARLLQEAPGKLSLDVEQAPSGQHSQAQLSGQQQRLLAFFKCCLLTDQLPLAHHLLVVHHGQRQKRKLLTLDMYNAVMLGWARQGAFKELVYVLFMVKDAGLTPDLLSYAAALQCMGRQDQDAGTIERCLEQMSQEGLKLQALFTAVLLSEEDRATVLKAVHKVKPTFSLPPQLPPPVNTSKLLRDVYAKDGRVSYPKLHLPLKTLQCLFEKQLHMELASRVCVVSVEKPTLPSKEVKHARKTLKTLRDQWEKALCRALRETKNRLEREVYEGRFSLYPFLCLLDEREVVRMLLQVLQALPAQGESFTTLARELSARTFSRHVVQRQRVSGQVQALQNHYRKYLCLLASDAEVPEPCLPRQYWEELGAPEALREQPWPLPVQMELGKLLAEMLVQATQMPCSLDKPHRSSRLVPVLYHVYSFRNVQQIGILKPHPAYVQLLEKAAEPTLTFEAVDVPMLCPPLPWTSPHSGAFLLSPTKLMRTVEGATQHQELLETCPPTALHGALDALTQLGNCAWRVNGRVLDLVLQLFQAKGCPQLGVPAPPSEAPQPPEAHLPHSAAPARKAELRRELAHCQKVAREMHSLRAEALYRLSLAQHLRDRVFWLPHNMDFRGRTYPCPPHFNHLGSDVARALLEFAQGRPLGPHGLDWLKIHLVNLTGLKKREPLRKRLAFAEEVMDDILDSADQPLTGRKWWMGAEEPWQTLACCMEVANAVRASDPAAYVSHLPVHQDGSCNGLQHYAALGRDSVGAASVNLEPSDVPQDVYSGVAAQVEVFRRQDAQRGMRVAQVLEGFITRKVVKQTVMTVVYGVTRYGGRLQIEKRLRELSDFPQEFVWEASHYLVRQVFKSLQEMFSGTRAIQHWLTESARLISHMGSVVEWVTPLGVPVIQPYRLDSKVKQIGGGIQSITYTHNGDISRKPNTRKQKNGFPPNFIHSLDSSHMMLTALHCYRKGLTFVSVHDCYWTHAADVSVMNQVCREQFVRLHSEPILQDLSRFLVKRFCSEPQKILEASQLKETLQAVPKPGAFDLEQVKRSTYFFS
UniProt Q9Y4R8: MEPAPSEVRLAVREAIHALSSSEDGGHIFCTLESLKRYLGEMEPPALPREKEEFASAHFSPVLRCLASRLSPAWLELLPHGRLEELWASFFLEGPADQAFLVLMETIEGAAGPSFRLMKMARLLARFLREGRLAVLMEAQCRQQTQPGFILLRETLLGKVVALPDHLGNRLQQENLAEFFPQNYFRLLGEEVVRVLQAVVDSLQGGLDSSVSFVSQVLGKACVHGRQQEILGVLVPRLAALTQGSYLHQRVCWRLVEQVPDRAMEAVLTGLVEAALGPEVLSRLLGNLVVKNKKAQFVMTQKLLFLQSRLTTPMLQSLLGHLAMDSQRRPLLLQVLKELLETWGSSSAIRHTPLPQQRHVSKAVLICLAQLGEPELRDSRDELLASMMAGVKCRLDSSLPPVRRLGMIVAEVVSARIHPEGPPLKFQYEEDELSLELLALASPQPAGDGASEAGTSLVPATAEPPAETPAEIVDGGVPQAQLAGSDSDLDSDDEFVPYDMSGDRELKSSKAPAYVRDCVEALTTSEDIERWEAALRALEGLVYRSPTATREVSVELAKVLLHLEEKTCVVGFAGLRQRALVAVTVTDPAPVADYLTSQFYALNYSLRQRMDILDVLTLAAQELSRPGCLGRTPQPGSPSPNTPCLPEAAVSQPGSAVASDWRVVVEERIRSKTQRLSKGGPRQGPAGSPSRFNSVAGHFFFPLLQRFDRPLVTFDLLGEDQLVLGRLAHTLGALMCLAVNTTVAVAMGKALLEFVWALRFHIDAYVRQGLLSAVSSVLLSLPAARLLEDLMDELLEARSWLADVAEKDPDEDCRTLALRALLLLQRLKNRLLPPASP
UniProt P62993: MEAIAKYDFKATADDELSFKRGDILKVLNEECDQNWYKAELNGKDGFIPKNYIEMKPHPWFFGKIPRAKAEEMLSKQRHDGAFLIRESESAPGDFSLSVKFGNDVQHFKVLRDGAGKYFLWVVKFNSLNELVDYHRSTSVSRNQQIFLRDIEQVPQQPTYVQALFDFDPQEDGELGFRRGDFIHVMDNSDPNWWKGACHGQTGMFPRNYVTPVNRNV
UniProt P63167: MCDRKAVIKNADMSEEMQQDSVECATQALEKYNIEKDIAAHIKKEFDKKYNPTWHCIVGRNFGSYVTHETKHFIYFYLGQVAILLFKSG
UniProt Q9UBS4, residues 23-358: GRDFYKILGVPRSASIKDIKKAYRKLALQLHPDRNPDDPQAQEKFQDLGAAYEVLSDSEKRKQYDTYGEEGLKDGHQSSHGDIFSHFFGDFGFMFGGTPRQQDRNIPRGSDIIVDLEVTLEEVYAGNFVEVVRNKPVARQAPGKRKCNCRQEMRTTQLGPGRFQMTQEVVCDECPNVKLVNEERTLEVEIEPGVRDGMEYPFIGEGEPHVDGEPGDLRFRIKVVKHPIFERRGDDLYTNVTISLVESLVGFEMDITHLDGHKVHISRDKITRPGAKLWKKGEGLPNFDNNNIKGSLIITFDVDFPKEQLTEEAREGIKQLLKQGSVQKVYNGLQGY
UniProt Q14160: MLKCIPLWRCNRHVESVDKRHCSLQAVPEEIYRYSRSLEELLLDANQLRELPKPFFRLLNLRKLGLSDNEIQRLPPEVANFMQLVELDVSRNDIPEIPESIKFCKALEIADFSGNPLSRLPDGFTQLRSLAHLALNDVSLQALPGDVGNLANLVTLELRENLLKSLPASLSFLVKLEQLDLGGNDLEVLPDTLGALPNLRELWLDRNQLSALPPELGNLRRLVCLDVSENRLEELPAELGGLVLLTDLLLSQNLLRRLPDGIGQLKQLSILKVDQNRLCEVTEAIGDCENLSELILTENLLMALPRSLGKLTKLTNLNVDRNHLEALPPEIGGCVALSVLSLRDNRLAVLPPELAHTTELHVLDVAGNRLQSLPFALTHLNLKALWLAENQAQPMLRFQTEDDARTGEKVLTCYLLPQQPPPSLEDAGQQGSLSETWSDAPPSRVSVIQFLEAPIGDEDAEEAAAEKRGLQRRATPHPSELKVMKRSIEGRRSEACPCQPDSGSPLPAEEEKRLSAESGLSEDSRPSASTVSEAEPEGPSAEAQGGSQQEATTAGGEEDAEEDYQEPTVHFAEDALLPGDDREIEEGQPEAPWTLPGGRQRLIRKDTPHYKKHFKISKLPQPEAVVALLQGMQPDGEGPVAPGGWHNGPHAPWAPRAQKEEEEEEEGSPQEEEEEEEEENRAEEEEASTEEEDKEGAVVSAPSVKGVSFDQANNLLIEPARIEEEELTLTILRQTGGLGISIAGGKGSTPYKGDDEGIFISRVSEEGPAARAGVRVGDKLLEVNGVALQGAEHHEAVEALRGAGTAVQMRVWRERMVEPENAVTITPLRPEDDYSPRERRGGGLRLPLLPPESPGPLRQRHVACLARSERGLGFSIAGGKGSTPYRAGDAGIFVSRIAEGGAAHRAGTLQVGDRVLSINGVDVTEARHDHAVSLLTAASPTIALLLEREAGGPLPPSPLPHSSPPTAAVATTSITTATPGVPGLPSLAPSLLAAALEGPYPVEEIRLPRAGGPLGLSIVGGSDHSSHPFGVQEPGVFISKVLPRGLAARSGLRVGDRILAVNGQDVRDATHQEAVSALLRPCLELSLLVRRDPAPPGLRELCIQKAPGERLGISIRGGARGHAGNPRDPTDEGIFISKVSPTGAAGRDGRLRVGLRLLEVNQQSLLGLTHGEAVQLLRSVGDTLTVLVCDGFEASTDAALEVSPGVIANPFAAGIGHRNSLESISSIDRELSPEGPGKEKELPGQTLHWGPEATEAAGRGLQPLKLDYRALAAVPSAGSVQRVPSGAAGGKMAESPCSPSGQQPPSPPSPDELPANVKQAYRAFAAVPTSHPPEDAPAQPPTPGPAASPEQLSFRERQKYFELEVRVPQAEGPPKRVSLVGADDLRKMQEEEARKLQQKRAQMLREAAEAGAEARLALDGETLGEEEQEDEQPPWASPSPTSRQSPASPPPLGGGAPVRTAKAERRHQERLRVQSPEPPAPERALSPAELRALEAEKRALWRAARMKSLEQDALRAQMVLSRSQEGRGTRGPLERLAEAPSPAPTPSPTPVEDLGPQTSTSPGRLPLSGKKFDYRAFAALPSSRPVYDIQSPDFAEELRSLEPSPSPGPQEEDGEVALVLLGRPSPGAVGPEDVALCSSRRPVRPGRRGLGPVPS

Key:
Test in all cases: affinity purification with mass spectrometry; SF-TAP tagged phosphatase subunit transiently expressed in HeLa, with or without 50 ng/ml TNFα (10 min), SILAC; one step Strep purification on Strep-Tactin-Superflow beads; control SF-TAP alone; LC-MS/MS
[1] = target: T1, SF-TAP-tagged PTPN21 (human) (UniProt Q16825)
T1 sequence: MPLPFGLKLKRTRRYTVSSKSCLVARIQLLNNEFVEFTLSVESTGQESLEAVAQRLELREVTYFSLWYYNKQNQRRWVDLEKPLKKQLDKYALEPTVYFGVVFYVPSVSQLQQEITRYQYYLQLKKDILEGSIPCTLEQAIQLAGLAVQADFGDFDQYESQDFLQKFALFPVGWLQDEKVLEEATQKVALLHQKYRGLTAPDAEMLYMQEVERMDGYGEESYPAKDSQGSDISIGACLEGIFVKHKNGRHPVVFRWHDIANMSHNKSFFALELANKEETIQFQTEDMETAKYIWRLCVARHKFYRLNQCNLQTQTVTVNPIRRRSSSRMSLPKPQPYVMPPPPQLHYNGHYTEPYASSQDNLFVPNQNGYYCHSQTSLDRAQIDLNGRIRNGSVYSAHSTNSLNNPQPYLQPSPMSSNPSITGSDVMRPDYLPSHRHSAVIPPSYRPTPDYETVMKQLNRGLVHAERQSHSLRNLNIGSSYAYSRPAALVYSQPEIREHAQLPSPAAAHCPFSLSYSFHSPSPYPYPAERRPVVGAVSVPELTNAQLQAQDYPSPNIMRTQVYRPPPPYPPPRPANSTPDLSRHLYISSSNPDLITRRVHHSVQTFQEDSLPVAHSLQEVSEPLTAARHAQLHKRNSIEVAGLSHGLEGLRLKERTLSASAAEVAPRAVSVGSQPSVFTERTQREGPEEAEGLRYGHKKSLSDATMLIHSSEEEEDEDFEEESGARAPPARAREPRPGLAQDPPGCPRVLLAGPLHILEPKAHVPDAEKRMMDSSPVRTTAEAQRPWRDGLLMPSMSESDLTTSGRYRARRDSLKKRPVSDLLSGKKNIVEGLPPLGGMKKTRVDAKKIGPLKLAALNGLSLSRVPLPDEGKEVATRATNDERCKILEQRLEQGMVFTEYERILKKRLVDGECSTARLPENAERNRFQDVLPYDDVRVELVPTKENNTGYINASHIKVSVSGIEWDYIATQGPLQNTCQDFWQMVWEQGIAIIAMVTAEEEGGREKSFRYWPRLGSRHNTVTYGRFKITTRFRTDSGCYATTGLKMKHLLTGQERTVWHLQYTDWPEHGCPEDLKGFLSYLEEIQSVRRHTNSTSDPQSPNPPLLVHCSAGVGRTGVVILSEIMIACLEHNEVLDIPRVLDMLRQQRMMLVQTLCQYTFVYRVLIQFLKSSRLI

[2] = target: SF-TAP-tagged PTPN3 (human) (UniProt P26045)
[3] = target: T2, SF-TAP-tagged DUSP26 (human) (UniProt Q9BV47)
T2 sequence: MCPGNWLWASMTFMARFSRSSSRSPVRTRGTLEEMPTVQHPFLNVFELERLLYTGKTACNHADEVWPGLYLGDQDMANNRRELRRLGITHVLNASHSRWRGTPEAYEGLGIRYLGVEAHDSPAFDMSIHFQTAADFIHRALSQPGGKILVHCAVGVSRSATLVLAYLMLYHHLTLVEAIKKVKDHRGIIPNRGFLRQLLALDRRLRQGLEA

[4] = target: SF-TAP-tagged PPP2CA (PP2A catalytic subunit) (human) (UniProt P67775)
[5] = target: T3, SF-TAP-tagged DUSP18 (human) (UniProt Q8NEJ0)
T3 sequence: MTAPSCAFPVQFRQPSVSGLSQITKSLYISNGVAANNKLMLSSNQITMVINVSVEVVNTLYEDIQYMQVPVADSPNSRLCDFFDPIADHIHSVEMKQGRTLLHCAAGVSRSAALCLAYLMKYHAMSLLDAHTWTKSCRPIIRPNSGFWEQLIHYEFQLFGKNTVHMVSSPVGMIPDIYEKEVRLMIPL

Molecule: POLRMT1 (from UniProt O00411 42-1230)
binding [2]: binds

Molecule: SQSTM (from UniProt Q13501 1-440)
binding [4]: binds

Molecule: TELO2 (from UniProt Q9Y4R8 1-837)
binding [3]: binds

Molecule: scaffold protein GRB2 (from UniProt P62993 1-217)
binding [1]: binds

Molecule: the dynein protein, DLC1 (from UniProt P63167 1-89)
binding [4]: binds
binding [1]: binds

B1: catalase (enzyme, UniProt P04040 1-527)
chain: MADSRDPASDQMQHWKEQRAAQKADVLTTGAGNPVGDKLNVITVGPRGPLLVQDVVFTDEMAHFDRERIPERVVHAKGAGAFGYFEVTHDITKYSKAKVFEHIGKKTPIAVRFSTVAGESGSADTVRDPRGFAVKFYTEDGNWDLVGNNTPIFFIRDPILFPSFIHSQKRNPQTHLKDPDMVWDFWSLRPESLHQVSFLFSDRGIPDGHRHMNGYGSHTFKLVNANGEAVYCKFHYKTDQGIKNLSVEDAARLSQEDPDYGIRDLFNAIATGKYPSWTFYIQVMTFNQAETFPFNPFDLTKVWPHKDYPLIPVGKLVLNRNPVNYFAEVEQIAFDPSNMPPGIEASPDKMLQGRLFAYPDTHRHRLGPNYLHIPVNCPYRARVANYQRDGPMCMQDNQGGAPNYYPNSFGAPEQQPSALEHSIQYSGEVRRFNTANDDNVTQVRAFYVNVLNEEQRKRLCENIAGHLKDAQIFIQKKAVKNFTEVHPDYGSHIQALLDKYNAEKPKNAIHTFVQSGSHLAAREKANL
binding [5]: binds

The next lines start with the values.

binding [1]: binds
Molecule: DNAJB11 (from UniProt Q9UBS4 23-358)

binding [3]: binds
Molecule: SCRIB (endogenous) (from UniProt Q14160 1-1655)

binding [1]: binds
Molecule: UBR (human (endogenous in HeLa))
